Experimental findings from publication doi:10.1101/525527 are described below.

Chains of the proteins cited; added tags and fusions are not shown.
UniProt Q9UKV8: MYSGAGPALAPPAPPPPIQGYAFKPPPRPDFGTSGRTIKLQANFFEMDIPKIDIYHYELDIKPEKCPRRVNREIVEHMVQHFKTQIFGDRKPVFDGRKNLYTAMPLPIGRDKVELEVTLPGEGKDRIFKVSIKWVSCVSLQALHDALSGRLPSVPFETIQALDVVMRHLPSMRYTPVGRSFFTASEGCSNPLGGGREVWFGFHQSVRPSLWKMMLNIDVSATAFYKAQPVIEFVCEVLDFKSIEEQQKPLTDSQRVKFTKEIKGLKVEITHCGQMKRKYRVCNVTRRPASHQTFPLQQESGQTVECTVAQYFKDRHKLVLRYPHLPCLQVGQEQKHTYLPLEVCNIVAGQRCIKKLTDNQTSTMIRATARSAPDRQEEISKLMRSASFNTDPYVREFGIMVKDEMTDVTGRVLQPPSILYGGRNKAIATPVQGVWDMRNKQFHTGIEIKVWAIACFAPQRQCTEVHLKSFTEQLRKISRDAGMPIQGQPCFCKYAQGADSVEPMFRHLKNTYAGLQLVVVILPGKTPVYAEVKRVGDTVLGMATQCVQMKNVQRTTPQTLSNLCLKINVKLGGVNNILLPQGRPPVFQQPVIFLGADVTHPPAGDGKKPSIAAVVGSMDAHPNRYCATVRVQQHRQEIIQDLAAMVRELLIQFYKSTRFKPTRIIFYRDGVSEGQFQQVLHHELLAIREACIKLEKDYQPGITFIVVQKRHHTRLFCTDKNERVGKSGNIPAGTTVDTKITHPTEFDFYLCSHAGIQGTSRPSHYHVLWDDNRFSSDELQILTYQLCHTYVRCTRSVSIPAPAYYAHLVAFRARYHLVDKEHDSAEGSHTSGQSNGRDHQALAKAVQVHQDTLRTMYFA

Assay [1] deals with AGO2 fused with C-terminal Flag- and HA-epitope tags (e-AGO2) (UniProt Q9UKV8). Kind of assay: co-IP.
Assay [2] deals with AGO1 fused with C-terminal Flag- and HA-epitope tags (e-AGO1) (human) (UniProt Q9UL18). Kind of assay: co-IP.

These are yes or no findings as the source states them, for the method shown. In cells and extracts the contact can be indirect. Some entries that bind do so weakly or less than the wild type.

B1: NONO (protein, UniProt Q15233 1-471)
chain: MQSNKTFNLEKQNHTPRKHHQHHHQQQHHQQQQQQPPPPPIPANGQQASSQNEGLTIDLKNFRKPGEKTFTQRSRLFVGNLPPDITEEEMRKLFEKYGKAGEVFIHKDKGFGFIRLETRTLAEIAKVELDNMPLRGKQLRVRFACHSASLTVRNLPQYVSNELLEEAFSVFGQVERAVVIVDDRGRPSGKGIVEFSGKPAARKALDRCSEGSFLLTTFPRPVTVEPMDQLDDEEGLPEKLVIKNQQFHKEREQPPRFAQPGSFEYEYAMRWKALIEMEKQQQDQVDRNIKEAREKLEMEMEAARHEHQVMLMRQDLMRRQEELRRMEELHNQEVQKRKQLELRQEEERRRREEEMRRQQEEMMRRQQEGFKGTFPDAREQEIRMGQMAMGGAMGINNRGAMPPAPVPAGTPAPPGPATMMPDGTLGLTPPTTERFGQAATMEGIGAIGGTPPAFNRAAPGAEFAPNKRRRY
For B1, the binding result is “no binding” in assay [1] and “binds” in assay [2].
